# Source: the supplement of paper PMC10849652
# By UniProt entry, the sequences of proteins in these tests, tags left out. Where a name states a change or a piece, a line headed by the entry shows the natural chain unless it says otherwise.
# UniProt Q9GZX9: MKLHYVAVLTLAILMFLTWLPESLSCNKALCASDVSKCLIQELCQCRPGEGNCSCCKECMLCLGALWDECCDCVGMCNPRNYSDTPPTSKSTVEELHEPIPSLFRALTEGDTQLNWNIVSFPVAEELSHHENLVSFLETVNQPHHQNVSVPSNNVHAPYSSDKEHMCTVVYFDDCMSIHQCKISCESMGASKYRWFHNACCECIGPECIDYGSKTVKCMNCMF
# UniProt O14562: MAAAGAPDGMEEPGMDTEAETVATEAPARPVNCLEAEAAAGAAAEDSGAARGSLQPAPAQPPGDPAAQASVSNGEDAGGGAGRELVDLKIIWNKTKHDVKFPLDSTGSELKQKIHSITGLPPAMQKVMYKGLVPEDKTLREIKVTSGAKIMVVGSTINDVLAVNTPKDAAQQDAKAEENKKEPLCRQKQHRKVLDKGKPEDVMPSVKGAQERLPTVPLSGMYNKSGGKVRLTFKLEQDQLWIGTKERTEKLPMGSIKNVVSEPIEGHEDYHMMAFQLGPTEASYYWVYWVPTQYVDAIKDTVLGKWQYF
# UniProt Q9C0C9: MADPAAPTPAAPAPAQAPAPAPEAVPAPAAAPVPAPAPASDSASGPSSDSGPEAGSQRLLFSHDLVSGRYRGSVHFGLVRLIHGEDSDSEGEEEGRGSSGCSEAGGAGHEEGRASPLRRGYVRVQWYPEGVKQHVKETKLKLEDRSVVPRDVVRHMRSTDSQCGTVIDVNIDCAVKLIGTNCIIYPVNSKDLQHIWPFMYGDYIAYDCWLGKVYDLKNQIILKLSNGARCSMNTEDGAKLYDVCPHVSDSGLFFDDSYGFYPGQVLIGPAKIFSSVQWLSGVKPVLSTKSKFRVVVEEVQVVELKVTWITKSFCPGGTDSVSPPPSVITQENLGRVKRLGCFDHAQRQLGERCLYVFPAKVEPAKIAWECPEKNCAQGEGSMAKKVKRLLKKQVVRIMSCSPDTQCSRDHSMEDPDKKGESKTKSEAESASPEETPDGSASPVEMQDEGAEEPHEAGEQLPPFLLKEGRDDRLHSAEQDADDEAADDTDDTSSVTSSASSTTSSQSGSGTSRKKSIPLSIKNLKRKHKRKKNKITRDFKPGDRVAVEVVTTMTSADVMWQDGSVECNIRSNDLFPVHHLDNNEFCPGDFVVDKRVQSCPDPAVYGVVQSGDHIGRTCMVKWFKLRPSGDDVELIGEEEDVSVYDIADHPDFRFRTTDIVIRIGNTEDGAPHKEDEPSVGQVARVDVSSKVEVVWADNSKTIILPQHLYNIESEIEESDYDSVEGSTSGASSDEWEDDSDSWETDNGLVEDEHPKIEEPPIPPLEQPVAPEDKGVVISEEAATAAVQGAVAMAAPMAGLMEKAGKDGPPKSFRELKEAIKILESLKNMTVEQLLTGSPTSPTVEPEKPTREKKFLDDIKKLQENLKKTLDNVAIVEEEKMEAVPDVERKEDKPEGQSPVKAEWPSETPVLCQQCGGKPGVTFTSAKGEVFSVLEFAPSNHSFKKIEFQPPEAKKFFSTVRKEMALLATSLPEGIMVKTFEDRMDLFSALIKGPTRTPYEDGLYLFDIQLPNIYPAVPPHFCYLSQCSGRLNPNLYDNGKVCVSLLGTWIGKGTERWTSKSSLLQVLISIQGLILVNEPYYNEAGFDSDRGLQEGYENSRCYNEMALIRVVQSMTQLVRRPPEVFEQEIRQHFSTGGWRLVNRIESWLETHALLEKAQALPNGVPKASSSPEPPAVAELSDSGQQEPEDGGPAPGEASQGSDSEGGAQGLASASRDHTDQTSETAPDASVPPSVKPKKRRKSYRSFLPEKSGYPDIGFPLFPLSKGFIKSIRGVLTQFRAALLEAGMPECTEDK
# UniProt P60604: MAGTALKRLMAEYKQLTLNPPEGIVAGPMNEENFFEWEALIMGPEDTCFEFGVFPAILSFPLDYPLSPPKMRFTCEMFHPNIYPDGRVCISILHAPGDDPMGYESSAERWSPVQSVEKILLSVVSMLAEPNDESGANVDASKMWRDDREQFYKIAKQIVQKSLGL
# UniProt Q14157: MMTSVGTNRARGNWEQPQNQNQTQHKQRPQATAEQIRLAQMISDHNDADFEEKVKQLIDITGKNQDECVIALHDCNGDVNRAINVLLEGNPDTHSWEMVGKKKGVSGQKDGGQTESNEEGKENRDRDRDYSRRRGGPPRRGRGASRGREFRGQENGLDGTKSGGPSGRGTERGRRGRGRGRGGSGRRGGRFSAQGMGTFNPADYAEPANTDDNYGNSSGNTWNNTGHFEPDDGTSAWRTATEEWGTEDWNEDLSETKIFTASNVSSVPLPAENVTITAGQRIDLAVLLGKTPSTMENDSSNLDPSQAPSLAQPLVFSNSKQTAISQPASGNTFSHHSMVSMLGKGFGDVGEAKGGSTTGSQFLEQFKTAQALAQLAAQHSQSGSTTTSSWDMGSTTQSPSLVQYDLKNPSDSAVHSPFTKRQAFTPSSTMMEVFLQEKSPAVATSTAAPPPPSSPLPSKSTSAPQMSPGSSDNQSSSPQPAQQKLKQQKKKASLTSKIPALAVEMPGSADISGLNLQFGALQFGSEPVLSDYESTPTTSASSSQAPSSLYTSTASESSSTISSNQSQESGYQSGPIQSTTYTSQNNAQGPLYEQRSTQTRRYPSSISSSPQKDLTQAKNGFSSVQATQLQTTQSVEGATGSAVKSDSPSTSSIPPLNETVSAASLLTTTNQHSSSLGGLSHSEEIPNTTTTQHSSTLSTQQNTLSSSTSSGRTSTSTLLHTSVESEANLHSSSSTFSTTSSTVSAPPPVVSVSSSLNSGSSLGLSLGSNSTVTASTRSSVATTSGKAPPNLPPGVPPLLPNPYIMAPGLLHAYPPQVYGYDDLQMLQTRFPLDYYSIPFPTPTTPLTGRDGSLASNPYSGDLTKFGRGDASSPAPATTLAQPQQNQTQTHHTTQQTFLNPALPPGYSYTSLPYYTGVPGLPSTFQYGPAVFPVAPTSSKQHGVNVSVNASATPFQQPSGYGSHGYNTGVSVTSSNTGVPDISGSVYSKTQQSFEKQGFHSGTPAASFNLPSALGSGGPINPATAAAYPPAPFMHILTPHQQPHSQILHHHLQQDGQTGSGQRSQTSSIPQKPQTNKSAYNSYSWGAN
# UniProt O14933: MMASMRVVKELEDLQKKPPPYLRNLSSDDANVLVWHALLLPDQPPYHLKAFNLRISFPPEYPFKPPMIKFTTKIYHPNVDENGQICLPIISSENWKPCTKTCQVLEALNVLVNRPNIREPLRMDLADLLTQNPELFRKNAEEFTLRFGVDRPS
# UniProt P62253: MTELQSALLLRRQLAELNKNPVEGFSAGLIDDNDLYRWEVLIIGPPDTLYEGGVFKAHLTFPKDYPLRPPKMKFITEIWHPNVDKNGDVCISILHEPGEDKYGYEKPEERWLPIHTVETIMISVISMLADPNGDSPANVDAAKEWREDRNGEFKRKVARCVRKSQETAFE
# UniProt Q9UMX0, whole entry, looked up: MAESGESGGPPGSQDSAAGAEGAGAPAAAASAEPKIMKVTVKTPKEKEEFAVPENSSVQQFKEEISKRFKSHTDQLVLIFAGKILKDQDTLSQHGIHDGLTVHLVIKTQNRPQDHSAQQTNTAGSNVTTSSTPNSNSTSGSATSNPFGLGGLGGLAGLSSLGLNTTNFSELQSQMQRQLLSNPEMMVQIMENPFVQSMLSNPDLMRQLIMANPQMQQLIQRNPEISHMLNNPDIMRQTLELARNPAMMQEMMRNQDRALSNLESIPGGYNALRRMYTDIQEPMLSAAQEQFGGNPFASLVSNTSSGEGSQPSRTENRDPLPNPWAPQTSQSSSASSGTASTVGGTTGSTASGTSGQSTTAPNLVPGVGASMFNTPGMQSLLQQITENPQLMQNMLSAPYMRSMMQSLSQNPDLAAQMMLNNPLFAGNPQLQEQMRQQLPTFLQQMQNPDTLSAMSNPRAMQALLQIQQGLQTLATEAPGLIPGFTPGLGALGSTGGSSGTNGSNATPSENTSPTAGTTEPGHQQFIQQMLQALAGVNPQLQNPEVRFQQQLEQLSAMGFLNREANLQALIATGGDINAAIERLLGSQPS
# UniProt Q9BRA2: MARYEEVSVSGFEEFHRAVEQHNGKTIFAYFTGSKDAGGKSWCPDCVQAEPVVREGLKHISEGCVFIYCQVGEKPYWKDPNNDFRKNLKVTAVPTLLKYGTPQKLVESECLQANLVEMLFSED
# UniProt Q8WVN8: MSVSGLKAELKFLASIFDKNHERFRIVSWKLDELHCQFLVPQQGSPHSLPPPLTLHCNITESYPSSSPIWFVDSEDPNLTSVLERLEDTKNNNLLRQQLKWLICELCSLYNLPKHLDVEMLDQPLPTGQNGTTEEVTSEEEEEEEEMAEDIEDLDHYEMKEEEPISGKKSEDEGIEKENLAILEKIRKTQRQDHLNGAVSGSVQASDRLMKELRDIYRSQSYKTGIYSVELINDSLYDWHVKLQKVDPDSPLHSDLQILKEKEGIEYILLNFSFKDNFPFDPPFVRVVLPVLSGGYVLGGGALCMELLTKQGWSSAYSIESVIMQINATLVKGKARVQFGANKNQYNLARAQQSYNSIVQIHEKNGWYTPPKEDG
# UniProt Q9NY65, whole entry, looked up: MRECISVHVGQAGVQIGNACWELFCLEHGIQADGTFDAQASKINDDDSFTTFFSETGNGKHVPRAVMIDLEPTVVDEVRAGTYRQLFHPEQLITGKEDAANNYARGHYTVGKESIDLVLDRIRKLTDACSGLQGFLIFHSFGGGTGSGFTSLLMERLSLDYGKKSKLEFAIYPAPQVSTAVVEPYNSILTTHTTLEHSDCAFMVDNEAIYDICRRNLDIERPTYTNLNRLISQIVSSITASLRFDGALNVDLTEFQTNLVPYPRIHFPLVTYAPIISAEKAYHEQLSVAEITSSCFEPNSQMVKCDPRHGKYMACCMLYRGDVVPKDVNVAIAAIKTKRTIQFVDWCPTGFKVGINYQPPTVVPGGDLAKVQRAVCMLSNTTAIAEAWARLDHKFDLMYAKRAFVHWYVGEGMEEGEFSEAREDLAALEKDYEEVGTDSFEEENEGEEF
# UniProt Q3B726, whole entry, looked up: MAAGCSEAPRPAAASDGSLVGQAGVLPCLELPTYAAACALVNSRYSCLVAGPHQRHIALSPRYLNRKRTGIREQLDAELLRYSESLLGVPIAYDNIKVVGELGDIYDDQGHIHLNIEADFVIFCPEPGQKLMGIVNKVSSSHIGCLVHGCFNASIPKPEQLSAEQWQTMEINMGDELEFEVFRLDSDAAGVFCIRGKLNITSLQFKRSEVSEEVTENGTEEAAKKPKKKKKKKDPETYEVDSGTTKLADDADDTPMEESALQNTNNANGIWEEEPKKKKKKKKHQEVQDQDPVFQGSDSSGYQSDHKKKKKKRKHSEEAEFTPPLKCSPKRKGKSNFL
# UniProt P51668: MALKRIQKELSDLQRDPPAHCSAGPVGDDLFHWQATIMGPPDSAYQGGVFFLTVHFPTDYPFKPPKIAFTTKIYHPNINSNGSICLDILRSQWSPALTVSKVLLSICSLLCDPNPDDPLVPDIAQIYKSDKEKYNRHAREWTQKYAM
# UniProt Q92575: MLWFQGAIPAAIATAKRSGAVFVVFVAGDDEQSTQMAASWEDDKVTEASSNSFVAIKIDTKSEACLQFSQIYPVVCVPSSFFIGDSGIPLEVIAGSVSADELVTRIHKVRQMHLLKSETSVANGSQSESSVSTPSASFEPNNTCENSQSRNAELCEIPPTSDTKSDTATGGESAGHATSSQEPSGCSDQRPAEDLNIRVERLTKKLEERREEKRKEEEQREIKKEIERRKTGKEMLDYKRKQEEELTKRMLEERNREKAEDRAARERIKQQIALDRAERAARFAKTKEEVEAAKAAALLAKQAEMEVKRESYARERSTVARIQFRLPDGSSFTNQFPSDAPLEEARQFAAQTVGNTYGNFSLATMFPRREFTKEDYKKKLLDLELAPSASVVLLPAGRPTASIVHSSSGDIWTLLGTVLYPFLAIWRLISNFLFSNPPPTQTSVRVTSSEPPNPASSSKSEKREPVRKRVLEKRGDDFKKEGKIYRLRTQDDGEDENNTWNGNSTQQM
# UniProt O94941: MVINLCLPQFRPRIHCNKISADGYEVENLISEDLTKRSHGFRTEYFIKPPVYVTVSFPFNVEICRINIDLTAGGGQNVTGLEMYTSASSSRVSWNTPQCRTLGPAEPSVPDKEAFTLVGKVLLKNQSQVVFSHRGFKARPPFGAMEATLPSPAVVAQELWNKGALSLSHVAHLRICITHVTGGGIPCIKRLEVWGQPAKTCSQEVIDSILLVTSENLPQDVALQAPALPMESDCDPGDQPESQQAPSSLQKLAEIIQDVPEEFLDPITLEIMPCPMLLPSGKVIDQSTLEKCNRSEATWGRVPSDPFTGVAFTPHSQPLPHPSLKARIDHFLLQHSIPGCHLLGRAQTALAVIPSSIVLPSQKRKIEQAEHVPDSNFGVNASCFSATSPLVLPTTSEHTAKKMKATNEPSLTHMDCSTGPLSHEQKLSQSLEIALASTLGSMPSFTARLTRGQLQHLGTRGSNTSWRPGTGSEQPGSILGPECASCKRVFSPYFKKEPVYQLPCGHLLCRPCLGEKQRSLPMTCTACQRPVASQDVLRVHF
# The list shows a part of the results.
# Experiments:
# Assay in all cases: log2 fold change, soluble protein after heating vs DMSO (PISA); higher = thermal stabilisation; K562 lysate, 10 uM; active = over 0.2 and 3.5 SD of the protein, either way, in both replicates (recomputed)
# [1] = compound: Cc1cn(-c2cc(NC(=O)c3ccc(C)c(Nc4nccc(-c5cccnc5)n4)c3)cc(C(F)(F)F)c2)cn1 [nilotinib]
# Procedure, shortened: (§1)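 Soluble protein was defined as the supernatant remaining after 21,000xg for 90 min, following pooling of heated aliquots and adjustment to 0.5% NP-40 at 4°C. Before that, crude K562 extract at 1 mg/mL protein in PBS pH 7.4 with 1 mM MgCl2 was treated with 10 μM compound for 30 min and heated for 3 min across 48°C-58°C. Quantification used TMTpro 16plex LC-MS/MS with channel sums equalised, and values are log-two fold changes in thermal stability relative to solvent controls from duplicates.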
# [2] = compound: Cc1nc(Nc2n[nH]c3c2CN(C(=O)N[C@H](CN(C)C)c2ccccc2)C3(C)C)c2sccc2n1
# Procedure, shortened: as §1
# [3] = compound: Cc1nc(Nc2ncc(C(=O)Nc3c(C)cccc3Cl)s2)cc(N2CCN(CCO)CC2)n1 [dasatinib]
# Procedure, shortened: as §1
# [4] = compound: Cc1ncc(-c2ccnc(Nc3ccc(S(C)(=O)=O)cc3)n2)n1C(C)C
# Procedure, shortened: as §1
# [5] = compound: Cn1cc(-c2ccc3c(c2)CCN3C(=O)Cc2cccc(C(F)(F)F)c2)c2c(N)ncnc21
# Procedure, shortened: as §1
# [6] = compound: Cn1cc(CNCC2CCN(c3ncc(C(=O)NO)cn3)CC2)c2ccccc21 [quisinostat]
# Procedure, shortened: as §1
# [7] = compound: Cn1cncc1[C@@](N)(c1ccc(Cl)cc1)c1ccc2c(c1)c(-c1cccc(Cl)c1)cc(=O)n2C [tipifarnib]
# Procedure, shortened: as §1
# [8] = compound: NC(=O)Nc1cc(-c2cccc(F)c2)sc1C(=O)N[C@H]1CCCNC1
# Procedure, shortened: as §1
# [9] = compound: NC(=O)c1cnc(N[C@@H]2CCCC[C@@H]2N)nc1Nc1cccc(-n2nccn2)c1
# Procedure, shortened: as §1
# [10] = compound: NC1(c2ccc(-c3nc4ccn5c(=O)[nH]nc5c4cc3-c3ccccc3)cc2)CCC1
# Procedure, shortened: as §1
Target,log2 fold change [1],log2 fold change [2],log2 fold change [3],log2 fold change [4],log2 fold change [5],log2 fold change [6],log2 fold change [7],log2 fold change [8],log2 fold change [9],log2 fold change [10]
UCHL5 isoform 3 (UniProt Q9Y5K5),inactive: 0.016,inactive: -0.008,inactive: 0.01,inactive: 0.001,inactive: 0.006,inactive: -0.01,inactive: -0.005,inactive: 0.013,inactive: -0.031,inactive: 0.003
UCHL3 (UniProt P15374),inactive: -0.031,inactive: 0.023,inactive: -0.003,inactive: -0.05,inactive: 0,inactive: 0.067,inactive: 0.039,inactive: -0.005,inactive: -0.028,inactive: 0.069
UAP1 (UniProt Q16222),inactive: 0.017,inactive: -0.002,inactive: -0.01,inactive: -0.018,inactive: -0.015,inactive: 0.015,inactive: 0.005,inactive: 0.023,inactive: 0.004,inactive: 0.005
TWSG1 (UniProt Q9GZX9),inactive: -0.001,inactive: -0.115,inactive: -0.132,inactive: -0.038,inactive: -0.329,inactive: -0.01,inactive: 0.121,inactive: -0.004,inactive: 0.016,inactive: -0.047
UBFD1 (UniProt O14562),inactive: -0.001,inactive: -0.003,inactive: -0.004,inactive: 0.012,inactive: -0.018,inactive: -0.013,inactive: 0.02,inactive: -0.024,inactive: -0.02,inactive: -0.014
UBE3B (UniProt Q7Z3V4),inactive: 0.041,inactive: -0.006,inactive: 0.055,inactive: -0.011,inactive: 0.053,inactive: -0.077,inactive: -0.102,inactive: 0.041,inactive: 0.14,inactive: -0.026
UBE2O (UniProt Q9C0C9),inactive: 0.036,inactive: -0.017,inactive: -0.003,inactive: 0.06,inactive: -0.016,inactive: -0.051,inactive: -0.03,inactive: 0.012,inactive: -0.007,inactive: -0.028
UBE2G2 (UniProt P60604),inactive: 0.023,inactive: 0.071,inactive: 0.021,inactive: -0.07,inactive: -0.039,inactive: 0.044,inactive: -0.072,inactive: -0.068,inactive: -0.009,inactive: 0.066
UBAP2L isoform 5 (UniProt Q14157),inactive: -0.141,inactive: 0.015,inactive: -0.035,inactive: 0.055,inactive: -0.058,inactive: 0.024,inactive: -0.106,inactive: 0.048,inactive: 0.01,inactive: 0.02
UBE2L6 (UniProt O14933),inactive: 0.038,inactive: -0.139,inactive: -0.018,inactive: 0.036,inactive: -0.055,inactive: 0.024,inactive: 0.043,inactive: -0.032,inactive: -0.002,inactive: -0.096
UBLCP1 (UniProt Q8WVY7),inactive: -0.014,inactive: 0.007,inactive: 0.03,inactive: -0.006,inactive: 0.002,inactive: 0.064,inactive: -0.006,inactive: -0.011,inactive: 0.033,inactive: 0.045
UBE2G1 (UniProt P62253),inactive: -0.038,inactive: -0.005,inactive: 0.013,inactive: 0,inactive: -0.001,inactive: 0,inactive: -0.004,inactive: -0.011,inactive: -0.013,inactive: 0.062
UBE2NL (UniProt Q5JXB2),inactive: 0.029,inactive: -0.012,inactive: -0.021,inactive: 0.02,inactive: -0.036,inactive: 0.007,inactive: 0.054,inactive: -0.082,inactive: -0.013,inactive: 0.05
UBE2B (UniProt P63146),inactive: 0.002,inactive: 0.001,inactive: 0.02,inactive: -0.024,inactive: -0.073,inactive: 0.004,inactive: 0.038,inactive: 0.055,inactive: -0.014,inactive: -0.001
UCK1 isoform 4 (UniProt Q9HA47),inactive: -0.058,inactive: 0.081,inactive: 0.137,inactive: 0.011,inactive: 0.011,inactive: -0.093,inactive: -0.055,inactive: 0.036,inactive: -0.07,inactive: 0.044
UBE3C (UniProt Q15386),inactive: -0.006,inactive: 0.025,inactive: -0.047,inactive: -0.017,inactive: 0.049,inactive: 0.013,inactive: 0.01,inactive: 0.061,inactive: 0.027,inactive: -0.053
TWNK (UniProt Q96RR1),inactive: -0.075,inactive: 0.062,inactive: -0.11,inactive: 0.183,inactive: -0.011,inactive: -0.429,inactive: 0.139,inactive: 0.076,,inactive: -0.187

# Retrieved one by one from the entries so far:
Target,log2 fold change [1],log2 fold change [2],log2 fold change [3],log2 fold change [4],log2 fold change [5],log2 fold change [6],log2 fold change [7],log2 fold change [8],log2 fold change [9],log2 fold change [10]
TWNK (UniProt Q96RR1),inactive: -0.075,inactive: 0.062,inactive: -0.11,inactive: 0.183,inactive: -0.011,inactive: -0.429,inactive: 0.139,inactive: 0.076,,inactive: -0.187
UBE3C (UniProt Q15386),inactive: -0.006,inactive: 0.025,inactive: -0.047,inactive: -0.017,inactive: 0.049,inactive: 0.013,inactive: 0.01,inactive: 0.061,inactive: 0.027,inactive: -0.053

# (continued)

Target,log2 fold change [1],log2 fold change [2],log2 fold change [3],log2 fold change [4],log2 fold change [5],log2 fold change [6],log2 fold change [7],log2 fold change [8],log2 fold change [9],log2 fold change [10]
UBQLN1 (UniProt Q9UMX0),inactive: 0.047,inactive: 0.037,inactive: 0.045,inactive: 0.062,inactive: -0.054,inactive: -0.002,inactive: -0.027,inactive: 0.009,inactive: 0.012,inactive: 0.026
UBAP2L isoform 1 (UniProt Q14157),inactive: -0.03,inactive: -0.081,,inactive: 0.09,,inactive: 0.613,inactive: -0.067,inactive: 0.081,,
TXNDC17 (UniProt Q9BRA2),inactive: 0.025,inactive: -0.026,inactive: -0.022,inactive: 0.045,inactive: 0,inactive: 0.014,inactive: 0.039,inactive: -0.012,inactive: -0.021,inactive: 0.037
U2AF1L5 (UniProt P0DN76),inactive: -0.033,inactive: 0.061,inactive: -0.012,inactive: 0.077,inactive: 0.026,,inactive: -0.01,,inactive: 0.009,inactive: -0.022
UBE2Q2 (UniProt Q8WVN8),inactive: -0.065,inactive: -0.057,inactive: 0.076,inactive: -0.14,inactive: -0.013,,inactive: 0.079,,inactive: -0.091,inactive: 0.097
TUBA8 (UniProt Q9NY65),inactive: -0.047,inactive: -0.008,inactive: -0.124,inactive: -0.085,inactive: -0.007,,inactive: 0.003,,,inactive: -0.095
TXNIP (UniProt Q9H3M7),inactive: 0.091,inactive: 0.038,inactive: -0.023,inactive: -0.026,inactive: 0.012,inactive: -0.077,inactive: -0.022,inactive: 0.029,,inactive: 0.005
TUBB4B (UniProt P68371),inactive: 0.049,inactive: -0.05,inactive: -0.025,inactive: -0.034,inactive: -0.005,inactive: 0.033,inactive: -0.001,inactive: 0.006,inactive: -0.019,inactive: 0.009
UBE2E3 (UniProt Q969T4),inactive: 0.011,inactive: -0.033,inactive: 0.033,inactive: -0.032,inactive: 0.007,inactive: -0.044,inactive: 0.014,inactive: 0.012,inactive: -0.004,inactive: -0.094
TUBB4A (UniProt P04350),inactive: 0.027,inactive: -0.026,inactive: 0.003,inactive: -0.023,inactive: 0.067,inactive: -0.196,inactive: 0.027,inactive: 0.085,inactive: 0.011,inactive: 0.023
TWISTNB (UniProt Q3B726),inactive: 0.057,inactive: -0.017,inactive: -0.033,inactive: -0.053,inactive: 0.018,inactive: 0.145,inactive: -0.097,inactive: 0.006,inactive: -0.028,inactive: -0.048
UBE2D1 (UniProt P51668),active: 0.259,inactive: -0.093,inactive: -0.1,inactive: -0.064,inactive: 0.033,inactive: 0.108,inactive: -0.065,inactive: -0.06,inactive: -0.066,inactive: 0.029
TWF2 (UniProt Q6IBS0),inactive: -0.012,inactive: 0.035,inactive: 0.021,inactive: 0.022,inactive: 0.004,inactive: 0.015,inactive: 0.008,inactive: -0.019,inactive: -0.006,inactive: -0.028
TUBB2B (UniProt Q9BVA1),inactive: -0.063,inactive: 0.11,inactive: 0.046,inactive: 0.044,inactive: 0.064,,inactive: 0.008,,inactive: -0.154,
UBXN4 (UniProt Q92575),inactive: 0.005,inactive: 0.024,inactive: 0.042,inactive: 0.096,inactive: 0.019,inactive: -0.087,inactive: -0.052,inactive: -0.014,inactive: -0.015,inactive: -0.004
UBOX5 (UniProt O94941),inactive: 0.075,inactive: 0.047,inactive: 0.076,inactive: -0.004,inactive: 0.106,,inactive: 0.013,,,inactive: 0.174
